Laboratory results from PubChem BioAssay AID504444 (National Center for Advancing Translational Sciences (NCATS), 2011).
Where “and” joins values, the source holds several entries; their conditions need not be identical. Identical values can stand only once. The campaign covered roughly 360,000 compounds. About 7,500 (2.1%) were called active. The inconclusive results got no clear call from the source; some entries with a clear call stand among them for comparison. Calls come from the whole dose curve; as a rule, active = well fitted inhibition curve with a large enough effect; inconclusive = small, poorly fitted or top-dose-only effect, or effect the other way; inactive = flat fitted curve, though single readings scatter. Potencies beside an inconclusive call are fits to weak or partial responses and may not hold up.

Test: Nrf2 qHTS screen for inhibitors; note: nearly all actives have a fitted effect of over 60% in size
Settings: A549 ARE-Fluc reporter, luciferase luminescence, 18-24 h; series mostly up to 46 µM
In short: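 Cells were seeded and rested 2 h, then exposed to compounds for 18-24 h. CellTiter-Fluor was read first as a viability measure. BugLite was added 15 min before the final luminescent read of ARE-luciferase activity in A549 cells.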
Potency is the fitted concentration of half-maximal effect.

SMILES | Potency
CCCn1c(C)cc(C(=O)COc2ccc(C)nc2[N+](=O)[O-])c1C | inactive
CC(=O)c1cccc(NC(=O)/C=C/c2ccc(S(=O)(=O)N3CCOCC3)cc2)c1 | inactive
COc1ccc(NC(=O)Cn2c(=O)c3cccn3c3ccccc32)cc1 | inconclusive: 18.4 µM [falling, single point]
Cc1cc(C)n(-c2nc(NC(C)C)nc(NC(C)C)n2)n1 | inactive and inconclusive: 18.4 µM [activator, partial curve]
COc1nc(-c2ccccc2)ccc1-c1noc(-c2ccccc2)n1 | inconclusive: 13 µM [activator, partial curve]
O=C(C1CC=CCC1)N1CCC(CO)(Cc2ccc(Cl)cc2)CC1 (stereo not given) | inconclusive: 23.1 µM [falling, single point]
Cc1ccccc1C(=O)Nc1ccc2c(c1)OCCO2 | inconclusive: 0.184 µM [activator, full curve]
Cc1nc2c(=O)n(C)c(=O)n(C)c2nc1Cl | active: 18.4 µM
Cc1cc(C)c2c(=O)[nH]c(SCC(=O)Nc3cccc(S(=O)(=O)N(C)C)c3)nc2n1 | inconclusive: 25.9 µM [falling, partial curve, poor fit]
CN1CCN(NC(=O)c2ccc(COc3ccccc3Br)o2)CC1 | inconclusive: 16.4 µM [activator, partial curve, poor fit]
Cc1cccc(C)c1OCc1nnc2c3cnn(C)c3ncn12 | inconclusive: 0.164 µM [falling, full curve, poor fit]
COc1cc2sc3ccc(C#CC4(O)CCCCC4)cc3c(=O)c2cc1OC | inconclusive: 1.84 µM [activator, partial curve]
COc1ccc(NC(=O)c2cccc(N3C(=O)c4ccc(C(=O)Nc5ccc(OC)c(O)c5)cc4C3=O)c2)cc1O | inconclusive: 8.2 µM [falling, partial curve, poor fit]
Cc1ccc(Nc2c(-c3ccsc3)nc3cccc(C)n23)cc1 | inconclusive: 18.4 µM [falling, single point] and inconclusive: 14.6 µM [falling, single point]
O=C(/C=C/c1ccccc1)NC(NC(=S)Nc1ccc(Cl)cc1Cl)C(Cl)(Cl)Cl (stereo not given) | active: 20.6 µM
COc1ccc(NS(=O)(=O)c2cccc(NC(=O)c3ccc(S(=O)(=O)N4CCCCCC4)cc3)c2)cc1 | active: 5.8 µM
COc1ccc(C(C)(C)C)cc1NC(=O)Nc1ccc2c(c1)OCO2 | active: 23.1 µM
Cc1ccc(-n2ncc3c2CC(C)(C)CC3NC(=O)c2c(C)noc2C)cc1 (stereo not given) | inactive
COc1ccc(Cl)cc1NC(=O)CSC1=Nc2ccccc2C2=NC(CC(=O)NC3CCCCC3)C(=O)N12 (stereo not given) | inconclusive: 13 µM [falling, partial curve, poor fit]
COC(=O)[C@]1(CC(C)C)N[C@H](c2ccc(-c3ccc(Cl)c(Cl)c3)cc2)[C@@H]2C(=O)N(C)C(=O)[C@@H]21 | inconclusive: 29.1 µM [falling, single point]
CCOC(=O)N1CCN(C(=O)CN(Cc2ccc(Cl)cc2)S(=O)(=O)c2ccc(C)cc2)CC1 | inconclusive: 29.1 µM [falling, single point]
CCc1ccc(NCc2cc3ccc(OC)cc3n(CC(=O)Nc3ccc(C(C)C)cc3)c2=O)cc1 | inconclusive: 29.1 µM [activator, single point]

SMILES | Potency
CC(=O)c1cccc(NC(=O)Oc2ccccc2)c1 | inactive
COCCNC(=S)NC(=O)c1ccc(C(C)(C)C)cc1 | inactive
COc1ccc(C(=O)Nn2c(SCC(=O)NC3CCCCC3)nc3ccccc3c2=O)cc1 | inconclusive: 29.1 µM [falling, single point]
O=C(CSc1nnc(C2CC2)n1-c1ccccc1)NC1CCS(=O)(=O)C1 (stereo not given) | inactive
c1cc(-c2nn[nH]n2)ccc1CN1CCCCC1 | inconclusive: 29.1 µM [activator, single point]
COc1ccc(CNC(=O)CNC(C)c2ccc(F)cc2)cc1 (stereo not given) | inactive
CS(=O)(=O)c1oc(-c2ccc(F)cc2)nc1S(=O)(=O)c1ccc(Cl)cc1 | inconclusive: 20.6 µM [falling, single point]
COc1cccc(-c2ncc3ccccc3c2COC(=O)N(C)C)c1 | inconclusive: 20.6 µM [falling, partial curve, poor fit]
CCOc1ccccc1CNC(=O)c1ccc(-c2nc(CSc3ccc(C)cc3)c(C)o2)cc1 | inconclusive: 29.1 µM [falling, single point]
O=C(Nc1ccc(F)cc1F)N1CCCN(c2ccc(C(F)(F)F)cn2)CC1 | active: 6.51 µM
Cc1nc(N2CCN(c3ccccn3)CC2)c2c(C)c(C(=O)Nc3ccccc3F)sc2n1 | active: 16.4 µM
CCS(=O)(=O)N1CCN(C(=O)c2cccnc2)CC1 | inconclusive: 0.0651 µM [activator, full curve]
O=C(O)c1ccc(-n2nc(C(F)(F)F)c3c2-c2ccoc2CC3)cc1 | inconclusive: 3.26 µM [falling, partial curve, poor fit]
Cc1ccc(N=C2NC(=O)CS2)cc1C | inconclusive: 4.61 µM [falling, single point]
C=CCNC(=O)CC1C(=O)NCCN1Cc1c(F)cccc1Cl (stereo not given) | inconclusive: 20.6 µM [falling, single point]
CCOC(=O)C1CCCN(S(=O)(=O)c2cc3c4c(c2)CCC(=O)N4CCC3)C1 (stereo not given) | inconclusive: 16.4 µM [falling, partial curve]
Cc1nn(C)c(C(=O)Nc2ccc(S(=O)(=O)NC34CC5CC(CC(C5)C3)C4)cc2)c1Br | active: 14.6 µM
CCOC(=O)c1c(NC(C)=O)c2c3c(sc2n1Cc1ccc(Cl)cc1)CCCC3 | inactive
CCNc1ccc(C(=O)OCC(=O)NCc2ccccc2Cl)cc1[N+](=O)[O-] | inconclusive: 1.64 µM [activator, partial curve]
O=C(c1cc([N+](=O)[O-])ccc1N1CCOCC1)N1CCN(c2ccc([N+](=O)[O-])cc2)CC1 | inconclusive: 5.17 µM [falling, full curve]
O=c1cc(COc2ccccc2[N+](=O)[O-])nc2sccn12 | inactive
O=c1[nH]c(N2CCN(c3ccccc3)CC2)nc2c1CCCC2 | inconclusive: 16.4 µM [falling, partial curve, poor fit]

SMILES | Potency
COc1ccc(CCn2c(C3CCCCC3)nc3c(c(=O)c4ccccc4n3C)c2=O)cc1OC | inconclusive: 18.4 µM [activator, single point]
CS(=O)(=O)c1ccc(N2CCN(S(=O)(=O)c3cccs3)CC2)c([N+](=O)[O-])c1 | inconclusive: 16.4 µM [falling, partial curve, poor fit]
Cc1nc2scc(-c3ccccc3)c2c(=O)o1 | inconclusive: 20.6 µM [falling, partial curve, poor fit]
CCN1C(=O)CC(C(=O)OC)=C1C | inconclusive: 18.4 µM [falling, partial curve, poor fit]
CC(=O)c1cccc(NC(=O)Nc2ccc(C(=O)N3CCCC3)cc2)c1 | inconclusive: 25.9 µM [falling, single point]
O=C(NCCc1ccc(F)cc1)C(=O)Nc1cc2c3c(c1)CC(=O)N3CCC2 | inconclusive: 20.6 µM [falling, single point]
Cc1ccc(NC(=O)Cn2nnc(-c3nc(-c4ccncc4)no3)c2N)c(C)c1 | inconclusive: 25.9 µM [activator, single point]
O=C1CCCC(=O)N1c1ccc(NCCOCCO)c([N+](=O)[O-])c1 | inconclusive: 0.0731 µM [falling, full curve, poor fit]
COc1ccc(Cn2nnnc2CN(Cc2cc3ccc(C)cc3[nH]c2=O)C2CCCC2)cc1 | active: 20.6 µM
CC(NC(=O)C1CCN(C(=O)c2ccc(-n3ccc4ccccc43)s2)CC1)c1ccccc1 (stereo not given) | inconclusive: 29.1 µM [falling, single point]
O=S(=O)(c1cccc2cccnc12)N1CCN(c2ccc(F)cc2)CC1 | inconclusive: 2.06 µM [falling, partial curve, poor fit]
COc1ccccc1NC(=O)C1=C(C)Nc2nc(SCc3ccc(Cl)cc3)nn2C1c1ccccc1Cl (stereo not given) | inactive
COc1ccc(-c2nn3c(-c4ccco4)nnc3s2)cc1OC | inconclusive: 8.2 µM [falling, partial curve, poor fit]
CCn1c(SCC(=O)N/N=C(/C)c2ccncc2)nc2ccccc21 | inconclusive: 32.6 µM [falling, single point]
CCOc1ccc(-c2c(C(=O)N/N=C/c3ccc(C)cc3)nnn2-c2nonc2N)cc1 | inconclusive: 16.4 µM [falling, single point]
CCC1=NN(C(=O)C(=O)Nc2ccc(OC)cc2)C(O)(C(F)(F)F)C1 (stereo not given) | inconclusive: 29.1 µM [falling, single point]
O=C(NCc1ccc2c(c1)OCO2)c1cc2ccccc2oc1=O | inconclusive: 0.184 µM [activator, full curve, poor fit]
O=C(Cc1ccccc1)n1nc(-c2ccco2)nc1SCc1ccccc1 | inactive
COC(=O)Cc1c(C)c2cc3c(c(C)c2oc1=O)OCN(CCc1ccccc1F)C3 | inactive
C(=N\Nc1ccccn1)/c1ccc2c(c1)OCCO2 | inconclusive: 5.8 µM [activator, full curve]
CCOc1ccc(NC(=O)COc2ccccc2C(=O)NCc2ccccc2)cc1 | inconclusive: 8.2 µM [falling, partial curve, poor fit]
